Earlier results as cited in paper PMC7024557, “Synthesis of Novel Structural Hybrids between Aza-Heterocycles and Azelaic Acid Moiety with a Specific Activity on Osteosarcoma Cells” (Molecules, 2020).

Test system: human osteosarcoma growth
Parameters: method as in PMID 24344034, PMID 30697272
Conditions: ref [32],[33]; read-out: IC50, inhibition of human osteosarcoma growth; cited from earlier work

**Q.** With O=C(CCCCCCC(=O)Nc1ccccc1)NO [SAHA, SuberAniloHydroxamic Acid] as the molecule, how does the IC50 read?
**A.** 5 µM
